Assay [1] deals with TAG1 (TOMATO AGAMOUS1) in pGBKT7 (yeast two-hybrid bait) (tomato (Solanum lycopersicum)) (UniProt Q40168). The experiment in a line: two-hybrid; Matchmaker Gold Yeast Two-Hybrid System (Clontech); SlHDACs in pGADT7, MADS-box genes in pGBKT7; growth on minimal medium -Leu/-Trp/-Ade/-His, also with 4 mg/mL X-alpha-Gal.
In assay [2] the target is TM29 (TOMATO MADS BOX29) in pGBKT7 (yeast two-hybrid bait) (tomato (Solanum lycopersicum)) (UniProt Q8VXG0). The assay is described as above.
Assay [3] addresses GST-SIHDA1 (tomato (Solanum lycopersicum)). The experiment in a line: pull-down; GST fusion proteins on GST resin, TM29-His or TAG1-His added, 2 h at 4 C; 50 mM Tris-HCl pH 7.5, 100 mM NaCl, 0.25% Triton X-100, 35 mM beta-mercaptoethanol; immunoblot with anti-His antibody; both purified. (In general: Immunoblotting shows a protein as a band on a membrane.)
The target in assay [4] is GST-SIHDA3 (tomato (Solanum lycopersicum)). The description is as above.

Amino acid sequences for entries named in this document (tags omitted). A change or cut given only in a name is not applied to a line headed by its entry.
UniProt Q40168: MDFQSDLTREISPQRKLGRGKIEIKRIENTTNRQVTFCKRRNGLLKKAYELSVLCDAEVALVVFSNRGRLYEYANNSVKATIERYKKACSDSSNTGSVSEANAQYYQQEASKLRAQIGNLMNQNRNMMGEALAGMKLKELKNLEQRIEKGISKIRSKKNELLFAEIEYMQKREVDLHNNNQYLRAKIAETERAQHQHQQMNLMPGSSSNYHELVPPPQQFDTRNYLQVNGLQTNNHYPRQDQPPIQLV
UniProt Q8VXG0: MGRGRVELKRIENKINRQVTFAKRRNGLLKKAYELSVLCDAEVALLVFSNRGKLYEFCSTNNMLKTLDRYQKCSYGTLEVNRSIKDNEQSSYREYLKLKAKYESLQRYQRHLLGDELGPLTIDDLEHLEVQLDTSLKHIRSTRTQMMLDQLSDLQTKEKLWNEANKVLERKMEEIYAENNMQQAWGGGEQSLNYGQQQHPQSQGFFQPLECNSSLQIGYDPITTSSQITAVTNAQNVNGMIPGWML

Results are given in words; binding and its absence hold for the method and conditions named. A result given as binding can be weak or reduced; the word gives no strength.

Turning to “SlHDA6 in pGADT7 (yeast two-hybrid prey) (from UniProt A0A3Q7GZP0) (enzyme)”, the binding entry in assay [1] and in assay [2] was “binds” each time.

For TM29-His (from UniProt Q8VXG0), in assay [3], the binding entry is recorded as “binds”.

As for TAG1-His (from UniProt Q40168 1-248), the binding entry in assay [4] and in assay [3] was “binds” each time.

(Values after publication PMC4285013.)
